The values below come from the supplement of paper PMC7752906.

Counter-ions that a name gives are not always drawn. Some of the results follow. Single values are uncertain here, since repeats match poorly.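 Test system: Schistosoma mansoni schistosomula, roughly 40 per well, imaged in bright field over time and compared with wells given 0.1% DMSO. Distance read-out: the paper calls a drug a hit when its Mahalanobis distance is at least 2.47, three standard deviations above the DMSO control mean. Degeneracy is the share of worms classified opaque.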

This assay concerns Schistosoma mansoni schistosomula. Put plainly: Mahalanobis distance of static-rate-frequency phenotype descriptors from DMSO controls (dimensionless); higher = stronger phenotypic change versus DMSO. The settings on record: 10 µM; 72 h.
Consider `CC(=O)Oc1cc(C(C)C)c(OCCN(C)C)cc1C` [Moxisylyte Hydrochoride], for which the Mahalanobis distance is inactive: 1.55. Turning to `O=C(O)c1cc(O)c2c(c1)[C@H]([C@H]1c3cc(C(=O)O)cc(O)c3C(=O)c3c(O[C@@H]4O[C@H](CO)[C@@H](O)[C@H](O)[C@H]4O)cccc31)c1cccc(O[C@@H]3O[C@H](CO)[C@@H](O)[C@H](O)[C@H]3O)c1C2=O` [Sennoside A], the Mahalanobis distance was inactive: 1.35. For `Nc1ncnc2c1ncn2[C@@H]1O[C@H](COP(=O)(O)O)[C@@H](O)[C@H]1O` [Adenosine Phosphate] the value was active: 3.21; for `CCC(=O)O[C@H]1[C@H](O[C@@H]2[C@@H](C)[C@H](O[C@H]3C[C@@](C)(OC)[C@@H](O)[C@H](C)O3)[C@@H](C)C(=O)O[C@H](CC)[C@@](C)(O)[C@H](O)[C@@H](C)C(=O)[C@H](C)C[C@@]2(C)O)O[C@H](C)C[C@@H]1N(C)C` [Erythromycin Propionate], active: 4.08.

`CC1=C(/C=C/C(C)=C/C=C/C(C)=C/C(=O)Nc2ccc(O)cc2)C(C)(C)CCC1` [Fenretinide]: the Mahalanobis distance is inactive: 2.18.

For `O=c1[nH]c(=O)n([C@H]2C[C@H](O)[C@@H](CO)O2)cc1F` [Floxuridine], the Mahalanobis distance was inactive: 1.92. Under `CN(C)CCc1c[nH]c2ccc(C[C@H]3COC(=O)N3)cc12` [Zolmitriptan] stands inactive: 1.33. For `CN(C)CCC=C1c2ccccc2C=Cc2ccccc21` [Cyclobenzaprine] the value was inactive: 2.09; for `Nc1ccc(S(=O)(=O)Nc2ccc(Cl)nn2)cc1` [Sulfachlorpyridazine], inactive: 1.87; for `Cc1cc2nc3ccc(N(C)C)cc3[s+]c2cc1N` [Tolonium Chloride], inactive: 2.22.

Take `CC1CCC(NC(=O)N(CCCl)N=O)CC1` (stereo not drawn) [Semustine]: the Mahalanobis distance is inactive: 2.1. Turning to `COc1cc2nc(N3CCN(C(=O)C4CCCO4)CC3)nc(N)c2cc1OC` (stereo not drawn) [Terazosin], the Mahalanobis distance is inactive: 2.4. Regarding `C[C@H]1C[C@H]2[C@@H]3CCC4=CC(=O)C=C[C@]4(C)[C@@]3(Cl)[C@@H](O)C[C@]2(C)[C@@]1(O)C(=O)CO` [Beclomethasone], the Mahalanobis distance is active: 4.46.

On to `COc1cc(C(=O)N2CCOCC2)cc(OC)c1OC` [Trimetozine], for which the Mahalanobis distance is inactive: 2.47. For `S=C=Nc1ccc(N=C=S)cc1` [Bitoscanate] the value was inactive: 2.16; for `OC[C@@H](O)[C@@H](O)[C@H](O)[C@@H](O)CO` [Sorbitol], inactive: 1.49; for `CN(C)CCCOc1nn(Cc2ccccc2)c2ccccc12` [Benzydamine Hydrochloride], active: 3.91. For `O=C(N/N=C/c1ccc([N+](=O)[O-])o1)c1ccc(O)cc1` [nifuroxazide] the value was active: 2.63.

Regarding `CN1CCN(C(c2ccccc2)c2ccc(Cl)cc2)CC1` (stereo not drawn) [Chlorcyclizine Hydrochloride], the Mahalanobis distance was inactive: 1.79. As for `CC(=O)Nc1c(I)c(NC(C)=O)c(I)c(C(=O)O)c1I` [Diatrizoic Acid], the Mahalanobis distance is inactive: 1.31.

Turning to `C[C@H]1[C@H](NC(=O)/C(=N\OC(C)(C)C(=O)O)c2csc(N)n2)C(=O)N1S(=O)(=O)O` [Aztreonam], the Mahalanobis distance is inactive: 1.33. For `CNCCC=C1c2ccccc2CCc2ccccc21` [Nortriptyline], the Mahalanobis distance is inactive: 2.03. For `C=C1/C(=C\C=C2/CCC[C@]3(C)[C@@H]([C@H](C)CCCC(C)(C)O)CC[C@@H]23)C[C@@H](O)C[C@@H]1O` [Calcitriol] the value was inactive: 2.43; for `CC(C)(O/N=C(\C(=O)N[C@@H]1C(=O)N2C(C(=O)[O-])=C(C[n+]3ccccc3)CS[C@H]12)c1csc(N)n1)C(=O)O` [Ceftazidime], inactive: 1.34. Under `Cc1ccc(/C(=C\CN2CCCC2)c2ccccn2)cc1` [Triprolidine Hydrochloride] stands active: 3.39; under `C[C@]12C=CC(=O)C=C1CC[C@@H]1[C@@H]2C(=O)C[C@@]2(C)[C@H]1CC[C@]2(O)C(=O)CO` [Prednisone], inactive: 2.36. Under `CCC1=C[C@@H]2CN(C1)Cc1c([nH]c3ccccc13)[C@@](C(=O)OC)(c1cc3c(cc1OC)N(C)[C@H]1[C@@](O)(C(=O)OC)[C@H](OC(C)=O)[C@]4(CC)C=CCN5CC[C@]31[C@@H]54)C2` [Vinorelbine] stands inactive: 1.69; under `OCc1ccccc1` [Benzyl Alcohol], inactive: 1.64; under `CNC(=C[N+](=O)[O-])NCCSCc1csc(CN(C)C)n1` [Nizatidine], inactive: 1.38. With `CS(=O)(=O)Nc1ccc([N+](=O)[O-])cc1Oc1ccccc1` [Nimesulide], the Mahalanobis distance is inactive: 2.3.

For `Cc1ccc(S(=O)(=O)NCl)cc1` [Chloramine-t], the Mahalanobis distance was inactive: 1.54.

For the molecule `O=C(O)P(=O)(O)O` [Foscarnet Sodium], the Mahalanobis distance was inactive: 2.19. For `CCCCCCCCCCCCCCCC[N+](C)(C)CCN(Cc1ccc(OC)cc1)c1ncccn1` [Thonzonium Bromide] the value was active: 2.9; for `C#C[C@]1(O)CC[C@H]2[C@@H]3CCc4cc(OC)ccc4[C@H]3CC[C@@]21C` [Mestranol], inactive: 1.99.

As to `CCOc1ccccc1C(N)=O` [Ethenzamide], the Mahalanobis distance is inactive: 1.6.

Turning to `CO[C@H]1C[C@@H]2CC[C@@H](C)[C@@](O)(O2)C(=O)C(=O)N2CCCC[C@H]2C(=O)O[C@H]([C@H](C)C[C@@H]2CC[C@@H](O)[C@H](OC)C2)CC(=O)[C@H](C)/C=C(\C)[C@@H](O)[C@@H](OC)C(=O)[C@H](C)C[C@H](C)/C=C/C=C/C=C/1C` [Rapamycin], the Mahalanobis distance was active: 3.64. Regarding `CO[C@H]1C[C@@H]2CC[C@@H](C)[C@@](O)(O2)C(=O)C(=O)N2CCCC[C@H]2C(=O)O[C@H]([C@H](C)C[C@@H]2CC[C@@H](O)[C@H](OC)C2)CC(=O)[C@H](C)/C=C(\C)[C@@H](O)[C@@H](OC)C(=O)[C@H](C)C[C@H](C)/C=C/C=C/C=C/1C` [Sirolimus], the Mahalanobis distance is inactive: 1.45.

Take `NS(=O)(=O)c1ccc(C(=O)O)cc1` [Carzenide]: the Mahalanobis distance is inactive: 1.78. As to `CC(C)(CO)[C@@H](O)C(=O)NCCCO` [Dexpanthenol], the Mahalanobis distance was inactive: 2.44. As to `CN1C(=O)CC(C)(c2ccccc2)C1=O` (stereo not drawn) [Methsuximide], the Mahalanobis distance was inactive: 1.65. For `CNC(=C[N+](=O)[O-])NCCSCc1ccc(CN(C)C)o1` [Ranitidine] the value was inactive: 1.49; for `COC(=O)[C@H]1[C@H]2C[C@@H]3c4[nH]c5cc(OC)ccc5c4CCN3C[C@H]2C[C@@H](OC(=O)c2cc(OC)c(OC)c(OC)c2)[C@@H]1OC` [reserpine], active: 2.65. `CS(=O)(=O)c1ccc([C@@H](O)[C@@H](CO)NC(=O)C(Cl)Cl)cc1` [Thiamphenicol]: the Mahalanobis distance is active: 2.52. Under `C[C@]12C=CC(=O)C=C1CC[C@@H]1[C@@H]2[C@@H](O)C[C@@]2(C)[C@H]1CC[C@]2(O)C(=O)CO` [Prednisolone] stands inactive: 2.33; under `N=c1ccn2c(n1)O[C@H]1[C@H](O)[C@@H](CO)O[C@H]12` [Ancitabine Hydrochloride], inactive: 1.77. Under `O=C(O)Cc1ccccc1Nc1c(Cl)cccc1Cl` [Diclofenac] stands inactive: 1.89; under `OC[C@@H](O)[C@@H](O)CO` [Erythritol], inactive: 1.66; under `O=C1C(CC[S+]([O-])c2ccccc2)C(=O)N(c2ccccc2)N1c1ccccc1` (stereo not drawn) [Sulfinpyrazone], inactive: 2.02. For `NS(=O)(=O)c1cc2c(cc1Cl)N=C(CSCc1ccccc1)NS2(=O)=O` [Benzthiazide] the value was inactive: 1.7; for `CC(=O)OC/C=C(C)/C=C/C=C(C)/C=C/C1=C(C)CCCC1(C)C` [Retinyl Acetate], inactive: 2.26; for `C#C[C@]1(OC(C)=O)CC[C@H]2[C@@H]3CCC4=C[C@@H](OC(C)=O)CC[C@@H]4[C@H]3CC[C@@]21C` [Ethynodiol Diacetate], active: 2.82. Regarding `O=C1CC[C@@H](C(=O)O)N1` [Pidolic Acid], the Mahalanobis distance is active: 2.89. Under `C#C[C@]1(O)CC[C@H]2[C@@H]3CCC4=CC(=O)CC[C@@H]4[C@H]3CC[C@@]21C` [Norethindrone] stands active: 2.47; under `CO[C@@]1(NC(=O)C(C(=O)O)c2ccc(O)cc2)C(=O)N2C(C(=O)O)=C(CSc3nnnn3C)CO[C@@H]21` (stereo partly drawn) [Moxalactam Disodium], inactive: 2.09; under `COc1cc2c(cc1O)CC[C@@H]1[C@@H]2CC[C@]2(C)[C@@H](O)CC[C@@H]12` [2-methoxyestradiol], active: 2.83.

For the molecule `CN(C)CCCN1c2ccccc2CCc2ccc(Cl)cc21` [Clomipramine], the Mahalanobis distance is inactive: 1.5. Under `Cc1cc(C(C)(C)CC(C)(C)C)ccc1OCCOCC[N+](C)(C)Cc1ccccc1` [Methylbenzethonium Chloride] stands inactive: 2.27; under `Cc1cc(NC(=O)C2=C(O)c3ccccc3S(=O)(=O)N2C)no1` [Isoxicam], inactive: 1.98; under `Nc1ccc(O)c(C(=O)O)c1` [Mesalamine], inactive: 1.65.

Consider `CCC(=O)O[C@H](CC(=O)O)C[N+](C)(C)C` [Levocarnitine Propionate Hydrochloride], for which the Mahalanobis distance was inactive: 2.05. For `Clc1ccccc1CN1CCc2sccc2C1` [Ticlopidine] the value was inactive: 2.03; for `CC1=C(/C=C/C(C)=C/C=C/C(C)=C/C=C/C=C(C)/C=C/C=C(C)/C=C/C2=C(C)CCCC2(C)C)C(C)(C)CCC1` [Beta-carotene], inactive: 1.66; for `CC[C@H]1OC(=O)[C@H](C)[C@@H](O[C@H]2C[C@@](C)(OC)[C@@H](O)[C@H](C)O2)[C@H](C)[C@@H](O[C@@H]2O[C@H](C)C[C@H](N(C)C)[C@H]2O)[C@](C)(O)C[C@@H](C)C(=O)[C@H](C)[C@@H](O)[C@]1(C)O` [Erythromycin], inactive: 2.12.
